Assay results taken from the supplement of paper PMC4862054.
Small differences around the control level are noise.

What was measured:
Assay in all cases: normalised response (% of control), CellTox Green; higher = less cell death (100 = DMSO, 0 = benzethonium chloride kill control)
Settings in all cases: incubation time: 72 h
BT-474 = tested on: BT-474
Procedure: (§1)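 DSRT, 72 h incubation, CellTox Green / CellTiter-Glo readout. Signal is normalised to DMSO and benzethonium chloride controls. Value is the normalised response at the lowest tested concentration.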

BT-549 = tested on: BT-549
Procedure: as §1

CAL-120 = tested on: CAL-120
Procedure: as §1

CAL-148 = tested on: CAL-148
Procedure: as §1

CAL-51 = tested on: CAL-51
Procedure: as §1

CAL-85-1 = tested on: CAL-85-1
Procedure: as §1

DU-4475 = tested on: DU-4475
Procedure: as §1

HCC1143 = tested on: HCC1143
Procedure: as §1

HCC1599 = tested on: HCC1599
Procedure: as §1

HCC1937 = tested on: HCC1937
Procedure: as §1

HDQ-P1 = tested on: HDQ-P1
Procedure: as §1

Hs578T = tested on: Hs578T
Procedure: as §1

MCF-10A = tested on: MCF-10A
Procedure: as §1

MDA-MB-231 = tested on: MDA-MB-231
Procedure: as §1

MDA-MB-436 = tested on: MDA-MB-436
Procedure: as §1

MDA-MB-453 = tested on: MDA-MB-453
Procedure: as §1

MDA-MB-468 = tested on: MDA-MB-468
Procedure: as §1

MFM-223 = tested on: MFM-223
Procedure: as §1

SMILES | normalised response (BT-474) [%] | normalised response (BT-549) [%] | normalised response (CAL-120) [%] | normalised response (CAL-148) [%] | normalised response (CAL-51) [%] | normalised response (CAL-85-1) [%] | normalised response (DU-4475) [%] | normalised response (HCC1143) [%] | normalised response (HCC1599) [%] | normalised response (HCC1937) [%] | normalised response (HDQ-P1) [%] | normalised response (Hs578T) [%] | normalised response (MCF-10A) [%] | normalised response (MDA-MB-231) [%] | normalised response (MDA-MB-436) [%] | normalised response (MDA-MB-453) [%] | normalised response (MDA-MB-468) [%] | normalised response (MFM-223) [%]
Cn1c(CCCC(=O)O)nc2cc(N(CCCl)CCCl)ccc21 [Bendamustine] (1 nM) | 102 | 93.3 | 96.8 | 91.4 | 93.9 | 99 | 102 | 90.1 | 99.4 | 87.3 | 99 | 97.3 | 109 | 115 | 97.5 | 111 | 56.4 | 101
CC(C)C[C@H](NC(=O)[C@H](Cc1ccccc1)NC(=O)c1cnccn1)B(O)O [Bortezomib] (0.1 nM) | 98.8 | 90.2 | 106 | 102 | 97.5 | 108 | 111 | 118 | 118 | 110 | 108 | 116 | 117 | 91.3 | 103 | 98.8 | 108 | 103
Nc1ncn([C@H]2C[C@H](O)[C@@H](CO)O2)c(=O)n1 [Decitabine] (1 nM) | 103 | 96.2 | 97.1 | 108 | 99.8 | 107 | 98.5 | 112 | 85.9 | 110 | – | 106 | 100 | 96.3 | 81.4 | 69.3 | 56.2 | 98.5
COc1cccc2c1C(=O)c1c(O)c3c(c(O)c1C2=O)C[C@@](O)(C(=O)CO)C[C@@H]3O[C@H]1C[C@H](N)[C@H](O)[C@H](C)O1 [Doxorubicin] (0.1 nM) | 104 | 90.1 | 101 | 109 | 115 | 106 | 100 | 95 | 89.6 | 108 | – | 111 | 96.1 | 102 | 93.1 | 108 | 63.5 | 101
Nc1nc(F)nc2c1ncn2[C@@H]1O[C@H](CO)[C@@H](O)[C@@H]1O [Fludarabine] (1 nM) | 100 | 95.8 | 74.5 | 105 | 109 | 99.7 | 103 | 121 | 106 | 74.5 | – | 101 | – | 106 | 90.5 | 107 | 75.9 | 62.9
CC(C)NC[C@@H](C(=O)N1CCN(c2ncnc3c2[C@H](C)C[C@H]3O)CC1)c1ccc(Cl)cc1 [GDC-0068] (1 nM) | 98 | 81.8 | 105 | – | -53.8 | 97.1 | 106 | 117 | 106 | 104 | 99.2 | 113 | 107 | 107 | 86.4 | 100 | 91.1 | 84.5
CN(C)C(=N)NC(=N)N [Metformin] (10 nM) | 94.9 | 92.4 | 98.4 | 63.3 | – | 98.9 | 93.2 | 74.9 | 92.8 | 94.4 | 75.2 | 52.4 | 91.6 | 83.6 | 76.1 | 87.6 | 92.8 | 84
O=C(Nc1cccnc1)N1CCC(Cc2cccc(Oc3ccc(C(F)(F)F)cn3)c2)CC1 [PF-3845] (1 nM) | 104 | 102 | 104 | 97.8 | 108 | 99.5 | 105 | 130 | 122 | 89.1 | 108 | 98.4 | 113 | 119 | 91.6 | 110 | 98.6 | 105
CC(C)(C)c1cnc(CSc2cnc(NC(=O)C3CCNCC3)s2)o1 [SNS-032] (1 nM) | 101 | 92.3 | 99.5 | 97.8 | 107 | 89.6 | 96.3 | 96.8 | 96.7 | 101 | 93.7 | 107 | – | 103 | 104 | 90.8 | 90 | 90.7
c1ccc2c(CCNc3ccc(Nc4ccncc4)cc3)c[nH]c2c1 [Serdemetan] (1 nM) | 99.4 | 98.9 | 97.9 | – | 113 | 98.3 | 97.4 | 102 | 94.5 | 86.2 | 73.7 | 90.1 | 80.2 | 103 | 74.5 | 98.8 | 110 | 101
CNC(=O)c1cc(Oc2ccc(NC(=O)Nc3ccc(Cl)c(C(F)(F)F)c3)cc2)ccn1 [Sorafenib] (0.1 nM) | 98.5 | 104 | 100 | 85.9 | 102 | 96.6 | 100 | 96.4 | 94.3 | 92.2 | 86.4 | 88.9 | 66.9 | 103 | 65.9 | 107 | 63.1 | 102
O=C(CCCCCCC(=O)Nc1ccc([C@H]2O[C@@H](CSc3nc(-c4ccccc4)c(-c4ccccc4)o3)C[C@@H](c3ccc(CO)cc3)O2)cc1)NO [Tubacin] (1 nM) | 97.5 | 93.6 | 102 | 97.9 | 126 | 107 | 103 | – | 109 | 100 | 108 | 68 | 102 | 98.1 | 98 | 104 | 91.5 | 105
C[C@]1(c2nc3c(C(N)=O)cccc3[nH]2)CCCN1 [Veliparib] (1 nM) | 101 | 95 | 95.1 | 95.6 | 117 | 101 | 99.8 | – | 101 | 101 | 94.7 | 87.9 | 102 | 102 | 84 | 116 | 81.7 | 97.5
CC[C@@H]1C(=O)N(C)c2cnc(Nc3ccc(C(=O)N[C@H]4CC[C@H](N5CCN(CC6CC6)CC5)CC4)cc3OC)nc2N1C(C)C [Volasertib] (0.1 nM) | 96.9 | 101 | 100 | 95.4 | 110 | 99.6 | 95.6 | 113 | 88.4 | 89.8 | 103 | 92.5 | 93.4 | – | 104 | 99.8 | – | 99.8

4 of the compounds above, with tabs.
SMILES	normalised response (BT-474) [%]	normalised response (BT-549) [%]	normalised response (CAL-120) [%]	normalised response (CAL-148) [%]	normalised response (CAL-51) [%]	normalised response (CAL-85-1) [%]	normalised response (DU-4475) [%]	normalised response (HCC1143) [%]	normalised response (HCC1599) [%]	normalised response (HCC1937) [%]	normalised response (HDQ-P1) [%]	normalised response (Hs578T) [%]	normalised response (MCF-10A) [%]	normalised response (MDA-MB-231) [%]	normalised response (MDA-MB-436) [%]	normalised response (MDA-MB-453) [%]	normalised response (MDA-MB-468) [%]	normalised response (MFM-223) [%]
Nc1nc(F)nc2c1ncn2[C@@H]1O[C@H](CO)[C@@H](O)[C@@H]1O [Fludarabine] (1 nM)	100	95.8	74.5	105	109	99.7	103	121	106	74.5	–	101	–	106	90.5	107	75.9	62.9
CN(C)C(=N)NC(=N)N [Metformin] (10 nM)	94.9	92.4	98.4	63.3	–	98.9	93.2	74.9	92.8	94.4	75.2	52.4	91.6	83.6	76.1	87.6	92.8	84
CC(C)(C)c1cnc(CSc2cnc(NC(=O)C3CCNCC3)s2)o1 [SNS-032] (1 nM)	101	92.3	99.5	97.8	107	89.6	96.3	96.8	96.7	101	93.7	107	–	103	104	90.8	90	90.7
C[C@]1(c2nc3c(C(N)=O)cccc3[nH]2)CCCN1 [Veliparib] (1 nM)	101	95	95.1	95.6	117	101	99.8	–	101	101	94.7	87.9	102	102	84	116	81.7	97.5
